In article PMC6354162, “Development of a MD-LC-MS/MS Method to Analyze 3 Bioactive Compounds in Huoxuezhitong Rubber Patch and Application to a Pharmacokinetic Study in Rats” (Evidence-based Complementary and Alternative Medicine : eCAM, 2019):

Columns and labels:
[1] = parameters: method as in PMID 28933096; details: microdialysis probe, in vivo; cited from earlier work
[2] = Adsorption rate to linear microdialysis probe with different perfusion fluids (reverse dialysis method); details: n=2

Row | Structure (SMILES) | Recovery rate (RR) [1] [%] | adsorption rate (AR) at the last sampling point ([2]; perfusion fluid 10%PG-10%Et-NS) [%] | adsorption rate (AR) at the last sampling point ([2]; perfusion fluid 20% Et-NS) [%] | adsorption rate (AR) at the last sampling point ([2]; perfusion fluid 20%PG-NS) [%] | adsorption rate (AR) at the last sampling point ([2]; perfusion fluid 30% Et-NS) [%]
1 | C=CCc1ccc(O)c(OC)c1 [eugenol] | 45.06±1.66 |  |  |  | 
2 | COc1ccc(C(C)=O)c(O)c1 [paeonol] | 46.80±1.66 | 4.90±1.67 | 6.58±1.13 | 3.72±0.35 | 2.37±1.32
3 | O=C(/C=C/C=C/c1ccc2c(c1)OCO2)N1CCCCC1 [piperine] | 34.15±2.06 |  |  |  | 
